{"source": "patent US8153424B2", "about": "“Method of in vitro differentiation of neural stem cells, motor neurons and dopamine neurons from primate embryonic stem cells” (Wisconsin Alumni Research Foundation, priority 2001, dated 2012)", "assay_type_in_all_cases": "cell-based, human", "key": {"[1]": {"test_system": "hESC-derived neuroectodermal cells", "assay": "Motor neuron induction in adherent culture, immunocytochemistry and HB9 cell counting", "conditions": "cultured in either RA alone or SHH alone", "description": "hESCs (lines H1 and H9, passages 19 to 42) were cultured and passaged weekly on a feeder layer of irradiated embryonic mouse fibroblasts as described (Thomson et al., supra, 1998). The undifferentiated state of ESCs were confirmed by typical morphology and expression of Oct4 and SSEA4. For neuroectodermal differentiation, hESCs were aggregated for four days and then cultured on an adhesive plastic surface for ten days in F12/DMEM supplemented with N2, heparin (2 ng/ml), and FGF2 (20 ng/ml) or RA (Zhang et al., supra, 2001). […]\nPrimary antibodies used in this study included polyclonal antibodies against neuronal class III βIII-tubulin (Covance Research Products, Richmond, Calif., 1:2000), nestin (Chemicon, Temecula, Calif., 1:750), Sox1 (Chemicon, 1:1000), synapsin I (Calbiochem, Darmstadt, German, 1:500), ChAT (Chemicon, 1:50), and VAChT (Chemicon, 1:1000), Isl½ (S. Pfaff), Otx2 (F. Vaccarino), and Oig2 (M. Nakafuku). […] For identification of electrophysiologically recorded cells, biocytin (Molecular Probes) filled cells were labeled with streptavidin-FITC (sigma, 1:200) and stained for ChAT. […]\nThe population of HB9-expressing cells among total differentiated cells (Hoechst labeled) was counted by a person who was blind to experimental groups either manually using the Metamorph software (Universal Imaging Corporation, Downingtown, Pa.) or by stereological measurement. […]"}, "[2]": {"test_system": "early rosette cells (Pax6+/Sox1-)", "assay": "RT-PCR of rostrocaudal genes in early rosette cells", "conditions": "RA 0.001-1.0 μM or FGF2 20 ng/ml for seven days; dose-dependent", "description": "RT-PCR amplifications were performed from hESC-derived neuroectodermal cells at different stages and motor neuron differentiation cultures. The following primers were used: […] ID NO:11), [NT] ID NO:12), 318 bp; […] ID NO:13), [NT] ID NO:14), 290 bp; […] ID NO:15), [NT] ID NO:16), 340 bp; […] ID NO:17), [NT] ID NO:18), 429 bp; HoxBl, [NT] ID NO:19), [NT] ID NO:20), 218 bp; GAPDH, [NT] ID NO:1), [NT] ID NO:2), 450 bpi Olig-2, [NT] ID NO:21), [NT] ID NO:22), 315 bp; […] ID NO:23), [NT] ID NO:24), 337 bp; […] ID NO:25), [NT] ID NO:26), 473 bp; […] ID NO:27), [NT] ID NO:28), 459 bp; SHH, [NT] ID NO:29), [NT] ID NO:30), 339 bp; […] ID NO:31), [NT] ID NO:32), 335 bp."}, "[3]": {"test_system": "hESC-derived neuroepithelial cells", "assay": "Ventral spinal progenitor and motor neuron differentiation in suspension culture, immunocytochemistry, cell counting and FACS", "conditions": "RA 0.1 μM from day 10, then suspension culture", "description": "For motor neuron induction, hESC-derived neuroepithelial cells at day 10 were first treated with RA (0.1 μM) for caudalization in a neural medium, which consisted of DMEM/F12 (Gibco), N2 supplement, heparin (Sigma, 2 μg/ml) and cAMP (Sigma, 1 μM). One week later (day 17), the posteriorized neuroectodermal cells were isolated, and suspended in the same neural medium in the presence of RA (0.1 μM) and SHH (100-200 ng/ml; R&D, 1845-SH) for one week. After that (day 24), brain-derived neurotrophic factor (BDNF), glial-derived neurotrophic factor (GDNF) and insulin-like growth factor-1 (IGF1) (10 ng/ml, PeproTech Inc.) were added to the culture. Purmorphamine (Calbiochem) at different concentrations (0.5, 1, 2 and 5 μM) was used instead of SHH in some experiments (see Results).\nImmunohistochemical staining was performed according to Zhang et al., (Zhang et al. (2001), supra). […]\nThe population of Olig2 or HB9-expressing cells among total differentiated cells (Hoechst labeled) was counted in two ways, as previously described (Li et al. (2005), supra). Six to twelve clusters in each group were counted and data were expressed as Mean ± SEM. […]\nCells were harvested using Accutase® (Innovative Cell), gently dissociated to single cells and washed with a FACS buffer (PBS, 0.1% NaN3, 2% donkey serum). […] Cells were analyzed by a Becton Dickinson FACSCaliber and analyzed with CellQuest Pro (BD Biosciences)."}}, "note": "At least one structure is not confirmed: it was looked up by name or label, or the drawing left a doubt."}
{"smiles": "CC1=C(/C=C/C(C)=C/C=C/C(C)=C/C(=O)O)C(C)(C)CCC1", "note": "[RA, retinoic acid]", "values": [{"measurement": "HB9+ cells observed", "setting": "[1]", "value": "few"}, {"measurement": "Expression of Otx2 and Hox genes (Hox B1, B6, C5, C8)", "setting": "[2]", "value": "decreased expression of Otx2 and increased expression of Hox genes"}, {"measurement": "Cells expressing Phox2b", "setting": "[3]", "value": "very few"}, {"measurement": "Cells positive for Hoxb4 and negative for Otx2", "setting": "[3]", "value": "Almost all"}]}
